The text below walks through data of patent US20250170247A1, “CONJUGATES, AND USES THEREOF” (CITY UNIVERSITY OF HONG KONG, priority 2023, published 2025).

The data set concerns the target T1, DHX36 (endogenous, HeLa) (Homo sapiens) (UniProt Q9H2U1).
T1 sequence (looked up, limits assumed): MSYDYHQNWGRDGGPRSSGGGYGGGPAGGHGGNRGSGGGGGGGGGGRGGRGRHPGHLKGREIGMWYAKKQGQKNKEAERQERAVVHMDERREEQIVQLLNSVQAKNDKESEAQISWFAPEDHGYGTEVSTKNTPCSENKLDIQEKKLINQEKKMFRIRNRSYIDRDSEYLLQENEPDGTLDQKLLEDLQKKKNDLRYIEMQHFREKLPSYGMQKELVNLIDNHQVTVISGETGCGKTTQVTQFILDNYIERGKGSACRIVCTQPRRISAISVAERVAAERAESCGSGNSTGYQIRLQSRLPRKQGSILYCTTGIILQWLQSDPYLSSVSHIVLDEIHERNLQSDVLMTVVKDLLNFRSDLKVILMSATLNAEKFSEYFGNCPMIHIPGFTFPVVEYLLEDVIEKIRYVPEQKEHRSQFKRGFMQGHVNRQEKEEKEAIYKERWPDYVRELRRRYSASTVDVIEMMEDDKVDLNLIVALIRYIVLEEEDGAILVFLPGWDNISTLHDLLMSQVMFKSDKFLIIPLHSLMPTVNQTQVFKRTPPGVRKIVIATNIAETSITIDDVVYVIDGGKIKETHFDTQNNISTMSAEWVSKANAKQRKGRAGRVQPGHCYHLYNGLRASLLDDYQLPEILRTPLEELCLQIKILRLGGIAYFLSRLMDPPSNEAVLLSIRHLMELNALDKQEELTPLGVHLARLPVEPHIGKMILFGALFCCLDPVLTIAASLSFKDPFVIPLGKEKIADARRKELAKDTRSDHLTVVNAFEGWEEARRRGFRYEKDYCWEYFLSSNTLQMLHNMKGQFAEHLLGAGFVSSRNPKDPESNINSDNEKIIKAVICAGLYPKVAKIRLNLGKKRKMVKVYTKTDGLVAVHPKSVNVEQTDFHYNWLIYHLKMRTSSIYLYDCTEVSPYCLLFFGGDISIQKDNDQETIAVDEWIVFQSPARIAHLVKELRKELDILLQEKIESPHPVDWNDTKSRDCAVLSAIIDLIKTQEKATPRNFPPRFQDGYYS
Description: binding assay. The conditions noted are these: 5'-hexynyl clicked to azide-modified AHPC; little to no merged foci in HeLa, data not shown; protein in cells; label: 3'-FAM; variant of FAM_rG4_A (hTERC rG4 WT-AHPC conjugate).

Results from cells or extracts need not show a direct contact. A negative result means that nothing was seen under these conditions. Where a protein sequence is shown, tags need not be part of it.

As to “GAAUUGCGGAGAAUGAACCU [FAM_rG4 mut_A (hTERC rG4 Mut-AHPC conjugate)]”, the binding result is reported as “no binding”.
